Data as given in PubChem BioAssay AID504764 (Drosophila RNAi Screening Center, 2011)

- Assay: 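Genome-wide screen for regulators of Notch-driven gene expression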 (primary screen)
- System: Drosophila Kc167 cells
- Reagent: long dsRNA against Drosophila genes
- Time to read-out: about 5 days (4 days dsRNA, then 24 h after transfection)
- Challenge: transfection of constitutively active membrane-tethered Notch lacking the extracellular domain, read 24 h later
- Detection: 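Light from a Notch-responsive E(spl)m3 luciferase reporter under active Notch, with control-promoter and no-Notch reporter wells to normalise; raw counts from paired wells a and b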
- Reading the numbers: induced reporter light, run 1, well a and induced reporter light, run 1, well b: higher = more light from the Notch target reporter with active Notch; control promoter light, run 1, well a and control promoter light, run 1, well b: higher = more light from the viral control promoter (cell number, transfection, viability); uninduced reporter light, run 1, well a: higher = more light from the Notch target reporter without active Notch
- Active means: 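Hit if the duplicate-averaged log2 ratio of induced to control-promoter light gives a plate-wise z beyond ±2, or induced to uninduced beyond ±1.8; weak-control or discordant-duplicate wells dropped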
- Calls: active = modifier hit (raised or lowered Notch signal); inactive = not a hit
The deposit covers about 22,000 reagents; shown is a random part of those with a known target gene and a result. Over the whole deposit, 403 (1.9%) are marked active. 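Unnormalised raw counts per well; ratio z-scores behind the hit calls and whether each hit raises or lowers signal are not deposited.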 Names joined by + are all predicted targets of the reagent. Not stated in the record: the amount of reagent.

CG4661 [DRSC19910] → induced reporter light, run 1, well a = 1.22e5; induced reporter light, run 1, well b = 1.26e5; control promoter light, run 1, well a = 1.79e5; control promoter light, run 1, well b = 1.96e5; uninduced reporter light, run 1, well a = 8525; outcome = inactive
CG8320 + ATPCL [DRSC07147] → induced reporter light, run 1, well a = 1.51e5; induced reporter light, run 1, well b = 1.10e5; control promoter light, run 1, well a = 1.06e5; control promoter light, run 1, well b = 1.10e5; uninduced reporter light, run 1, well a = 7660; outcome = inactive
QIL1 [DRSC10888] → induced reporter light, run 1, well a = 2.11e5; induced reporter light, run 1, well b = 1.73e5; control promoter light, run 1, well a = 2.69e5; control promoter light, run 1, well b = 2.10e5; uninduced reporter light, run 1, well a = 6125; outcome = inactive
CG34304 (retired record) [DRSC12810] → induced reporter light, run 1, well a = 1.43e5; induced reporter light, run 1, well b = 1.59e5; control promoter light, run 1, well a = 2.12e5; control promoter light, run 1, well b = 1.64e5; uninduced reporter light, run 1, well a = 12915; outcome = inactive
Prosalpha4 (Proteasome alpha4 subunit) [DRSC20271] → induced reporter light, run 1, well a = 70900; induced reporter light, run 1, well b = 62720; control promoter light, run 1, well a = 76610; control promoter light, run 1, well b = 61590; uninduced reporter light, run 1, well a = 7675; outcome = inactive
CR10032 (pseudo) [DRSC12499] → induced reporter light, run 1, well a = 1.13e5; induced reporter light, run 1, well b = 1.09e5; control promoter light, run 1, well a = 1.21e5; control promoter light, run 1, well b = 1.04e5; uninduced reporter light, run 1, well a = 7505; outcome = inactive
wbl (windbeutel) [DRSC07718] → induced reporter light, run 1, well a = 84355; induced reporter light, run 1, well b = 77660; control promoter light, run 1, well a = 97620; control promoter light, run 1, well b = 1.28e5; uninduced reporter light, run 1, well a = 5245; outcome = inactive
CG31098 [DRSC14259] → induced reporter light, run 1, well a = 1.57e5; induced reporter light, run 1, well b = 1.42e5; control promoter light, run 1, well a = 1.78e5; control promoter light, run 1, well b = 1.72e5; uninduced reporter light, run 1, well a = 10788; outcome = inactive
Blos2 [DRSC10147] → induced reporter light, run 1, well a = 2.13e5; induced reporter light, run 1, well b = 1.46e5; control promoter light, run 1, well a = 1.87e5; control promoter light, run 1, well b = 1.85e5; uninduced reporter light, run 1, well a = 8065; outcome = inactive
Vdup1 (Vitamin D[[3]] up-regulated protein 1) [DRSC08586] → induced reporter light, run 1, well a = 1.49e5; induced reporter light, run 1, well b = 1.63e5; control promoter light, run 1, well a = 1.95e5; control promoter light, run 1, well b = 2.45e5; uninduced reporter light, run 1, well a = 9070; outcome = inactive
CG15152 [DRSC02453] → induced reporter light, run 1, well a = 1.26e5; induced reporter light, run 1, well b = 1.39e5; control promoter light, run 1, well a = 1.50e5; control promoter light, run 1, well b = 1.72e5; uninduced reporter light, run 1, well a = 10725; outcome = inactive
Dg (Dystroglycan) [DRSC06718] → induced reporter light, run 1, well a = 80040; induced reporter light, run 1, well b = 82475; control promoter light, run 1, well a = 99820; control promoter light, run 1, well b = 97680; uninduced reporter light, run 1, well a = 5870; outcome = inactive
CG12539 [DRSC19470] → induced reporter light, run 1, well a = 88625; induced reporter light, run 1, well b = 70950; control promoter light, run 1, well a = 1.01e5; control promoter light, run 1, well b = 75830; uninduced reporter light, run 1, well a = 11070; outcome = inactive
Glut1 (Glucose transporter 1) [DRSC07927] → induced reporter light, run 1, well a = 2.24e5; induced reporter light, run 1, well b = 2.37e5; control promoter light, run 1, well a = 2.86e5; control promoter light, run 1, well b = 2.49e5; uninduced reporter light, run 1, well a = 16200; outcome = inactive
Glut1 (Glucose transporter 1) [DRSC08662] → induced reporter light, run 1, well a = 1.06e5; induced reporter light, run 1, well b = 95450; control promoter light, run 1, well a = 2.02e5; control promoter light, run 1, well b = 2.13e5; uninduced reporter light, run 1, well a = 9465; outcome = inactive
CG10445 [DRSC14247] → induced reporter light, run 1, well a = 1.10e5; induced reporter light, run 1, well b = 79700; control promoter light, run 1, well a = 86440; control promoter light, run 1, well b = 71775; uninduced reporter light, run 1, well a = 7830; outcome = inactive

Looked up above:
Result of wbl (windbeutel) [DRSC07718] in “induced reporter light, run 1, well b”: 77660
CG4661 [DRSC19910], control promoter light, run 1, well a: 1.79e5
Under “uninduced reporter light, run 1, well a”, Dg (Dystroglycan) [DRSC06718] is entered as 5870

Further reagents follow.
CG31659 [DRSC00760] → induced reporter light, run 1, well a = 1.08e5; induced reporter light, run 1, well b = 1.42e5; control promoter light, run 1, well a = 1.09e5; control promoter light, run 1, well b = 74965; uninduced reporter light, run 1, well a = 10210; outcome = inactive
CG5033 [DRSC07410] → induced reporter light, run 1, well a = 1.00e5; induced reporter light, run 1, well b = 95715; control promoter light, run 1, well a = 1.79e5; control promoter light, run 1, well b = 1.88e5; uninduced reporter light, run 1, well a = 8080; outcome = inactive
Nxt1 (NTF2-related export protein 1) [DRSC04630] → induced reporter light, run 1, well a = 2.07e5; induced reporter light, run 1, well b = 1.68e5; control promoter light, run 1, well a = 1.51e5; control promoter light, run 1, well b = 1.43e5; uninduced reporter light, run 1, well a = 14215; outcome = inactive
tou (toutatis) [DRSC06006] → induced reporter light, run 1, well a = 1.93e5; induced reporter light, run 1, well b = 1.52e5; control promoter light, run 1, well a = 1.85e5; control promoter light, run 1, well b = 1.63e5; uninduced reporter light, run 1, well a = 13305; outcome = inactive
CG34384 [DRSC12644] → induced reporter light, run 1, well a = 1.38e5; induced reporter light, run 1, well b = 1.41e5; control promoter light, run 1, well a = 1.56e5; control promoter light, run 1, well b = 1.46e5; uninduced reporter light, run 1, well a = 10690; outcome = inactive
CG34384 [DRSC14855] → induced reporter light, run 1, well a = 1.31e5; induced reporter light, run 1, well b = 1.13e5; control promoter light, run 1, well a = 1.04e5; control promoter light, run 1, well b = 89560; uninduced reporter light, run 1, well a = 8855; outcome = inactive
CG34384 [DRSC15444] → induced reporter light, run 1, well a = 60640; induced reporter light, run 1, well b = 77690; control promoter light, run 1, well a = 85040; control promoter light, run 1, well b = 51310; uninduced reporter light, run 1, well a = 5350; outcome = inactive
CG34384 [DRSC16575] → induced reporter light, run 1, well a = 1.04e5; induced reporter light, run 1, well b = 1.21e5; control promoter light, run 1, well a = 73210; control promoter light, run 1, well b = 81110; uninduced reporter light, run 1, well a = 4935; outcome = inactive
